In article PMC12768534:
Where a chain is given by its changes, count along the chain named. These are yes or no findings as the source states them, for the method shown. Some entries that bind do so weakly or less than the wild type.

Sequences of proteins named here, by UniProt entry; tags and fusion partners are left off. Residues count along the entry.
UniProt Q9HBE5, residues 20-232: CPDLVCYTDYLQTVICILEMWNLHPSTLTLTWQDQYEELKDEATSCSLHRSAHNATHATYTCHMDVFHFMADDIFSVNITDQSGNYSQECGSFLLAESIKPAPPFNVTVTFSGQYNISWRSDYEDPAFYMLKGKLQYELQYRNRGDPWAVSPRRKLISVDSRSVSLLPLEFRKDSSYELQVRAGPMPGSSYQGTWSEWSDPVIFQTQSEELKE

Assays:
Assay in all cases: flow cytometry on cells; yeast surface display (Aga2p); hIL-21R with human Fc-tag at 100 nM, labelled by biotinylated ZZ domain of protein A and streptavidin-PE; expression by anti-c-myc-FITC; only the binder purified
21d26 = target: T1, 21d26
T1 sequence: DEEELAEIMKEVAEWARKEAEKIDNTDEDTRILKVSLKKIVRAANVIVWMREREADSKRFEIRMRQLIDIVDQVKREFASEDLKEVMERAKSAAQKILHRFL

21d28 = target: T2, 21d28
T2 sequence: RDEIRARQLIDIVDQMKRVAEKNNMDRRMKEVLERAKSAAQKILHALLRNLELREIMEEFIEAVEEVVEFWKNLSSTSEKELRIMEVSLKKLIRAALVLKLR

21d29 = target: T3, 21d29
T3 sequence: T2 sequence with V19Y

21d36 = target: T4, 21d36
T4 sequence: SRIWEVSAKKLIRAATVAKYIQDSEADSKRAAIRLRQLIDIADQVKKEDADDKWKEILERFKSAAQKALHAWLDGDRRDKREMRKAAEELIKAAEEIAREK

binding (21d26): binds | binding (21d28): binds | binding (21d29): binds | binding (21d36): binds
Substance: human IL-21R with human Fc-tag (from UniProt Q9HBE5 20-232) (Fc fusion)
